Measured values: patent US10851102B2, “Imidazole and triazole containing bicyclic compounds as JAK inhibitors” (THERAVANCE BIOPHARMA R&D IP, LLC, priority 2019, dated 2020)
For at least one compound, name, drawing or mass did not settle the structure.

Protein sequences, listed by entry. Tags and fused reporters are not part of them. Lines headed by an entry give the natural chain unless they say otherwise; changes in a name come on top.
UniProt P52333: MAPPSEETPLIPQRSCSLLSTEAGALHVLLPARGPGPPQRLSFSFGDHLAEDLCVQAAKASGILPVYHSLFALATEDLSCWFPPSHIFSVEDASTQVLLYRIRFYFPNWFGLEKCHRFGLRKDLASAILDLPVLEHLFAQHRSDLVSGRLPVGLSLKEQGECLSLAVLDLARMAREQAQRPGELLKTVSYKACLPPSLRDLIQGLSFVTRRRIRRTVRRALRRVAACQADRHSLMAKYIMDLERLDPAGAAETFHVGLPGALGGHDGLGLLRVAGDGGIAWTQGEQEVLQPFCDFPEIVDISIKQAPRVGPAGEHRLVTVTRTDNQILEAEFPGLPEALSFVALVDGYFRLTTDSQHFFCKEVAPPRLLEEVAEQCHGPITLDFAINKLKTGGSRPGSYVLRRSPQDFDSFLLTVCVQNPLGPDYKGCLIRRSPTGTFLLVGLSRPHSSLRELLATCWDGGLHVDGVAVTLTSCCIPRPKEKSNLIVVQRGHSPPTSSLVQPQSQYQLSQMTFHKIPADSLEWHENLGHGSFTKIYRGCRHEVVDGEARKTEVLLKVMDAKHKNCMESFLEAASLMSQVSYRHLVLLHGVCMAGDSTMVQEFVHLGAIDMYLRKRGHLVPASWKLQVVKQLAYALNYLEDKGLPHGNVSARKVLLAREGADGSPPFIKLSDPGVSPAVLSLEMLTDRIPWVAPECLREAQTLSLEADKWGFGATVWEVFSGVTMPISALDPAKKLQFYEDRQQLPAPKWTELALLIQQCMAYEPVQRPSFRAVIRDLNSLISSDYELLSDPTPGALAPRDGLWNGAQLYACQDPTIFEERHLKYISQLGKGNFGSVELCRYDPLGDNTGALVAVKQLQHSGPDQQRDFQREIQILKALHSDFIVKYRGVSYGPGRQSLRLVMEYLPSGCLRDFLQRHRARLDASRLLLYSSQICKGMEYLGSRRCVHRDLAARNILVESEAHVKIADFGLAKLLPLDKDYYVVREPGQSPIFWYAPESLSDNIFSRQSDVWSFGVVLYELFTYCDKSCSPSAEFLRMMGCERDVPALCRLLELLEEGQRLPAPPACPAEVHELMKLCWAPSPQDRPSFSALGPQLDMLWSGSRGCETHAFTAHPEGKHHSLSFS

Biological target: JAK3 (Homo sapiens (Human), UniProt P52333)
Assay: Biochemical JAK and Tyk2 kinase assays (LanthaScreen): JAK3
Conditions: difference of pKi values, selectivity JAK3 over JAK1
Protocol: Assay 1: Biochemical JAK and Tyk2 Kinase Assays
A panel of four LanthaScreen JAK biochemical assays (JAK1, 2, 3 and Tyk2) were carried in a common kinase reaction buffer (50 mM HEPES, pH 7.5, 0.01% Brij-35, 10 mM MgCl2, and 1 mM EGTA). Recombinant GST-tagged JAK enzymes and a GFP-tagged STAT1 peptide substrate were obtained from Life Technologies.
Serially or discretely diluted compounds were pre-incubated with each of the four JAK enzymes and the substrate in white 384-well microplates (Corning) at ambient temperature for 1 h. ATP was subsequently added to initiate the kinase reactions in 10 μL total volume, with 1% DMSO. […] The plates were allowed to incubate at ambient temperature for 1 h before being read on the EnVision reader (Perkin Elmer). Emission ratio signals (520 nm/495 nm) were recorded and utilized to calculate the percent inhibition values based on DMSO and background controls.
For dose-response analysis, percent inhibition data were plotted vs. compound concentrations, and IC50 values were determined from a 4-parameter robust fit model with the Prism software (GraphPad Software). Results were expressed as pIC50 (negative logarithm of IC50) and subsequently converted to pKi (negative logarithm of dissociation constant, Ki) using the Cheng-Prusoff equation.

C=CC(=O)N1[C@@H]2CC[C@H]1C[C@H](Oc1cc(-c3ccc(O)cc3)cn3cncc13)C2 [Example 10, 1-((1R,3S,5S)-3-((6-(4-hydroxyphenyl)imidazo[1,5-a]pyridin-8-yl)oxy)-8-azabicyclo[3.2.1]octan-8-yl)prop-2-en-1-one] was tested, and the “JAK3 (pKi)-JAK1 (pKi)” value was “A (A represents a value of 3 or above)”.
